# Experimental data reported in the supplement of paper PMC3334620.
# The full ranking holds about 33,000 sequences; the median of “E-score (-0.5 to 0.5)” is about -0.016, and the highest 2% start at about 0.3. This is one part of the list.
# Target: T1, Yer184c (UniProt P39961)
# T1 sequence: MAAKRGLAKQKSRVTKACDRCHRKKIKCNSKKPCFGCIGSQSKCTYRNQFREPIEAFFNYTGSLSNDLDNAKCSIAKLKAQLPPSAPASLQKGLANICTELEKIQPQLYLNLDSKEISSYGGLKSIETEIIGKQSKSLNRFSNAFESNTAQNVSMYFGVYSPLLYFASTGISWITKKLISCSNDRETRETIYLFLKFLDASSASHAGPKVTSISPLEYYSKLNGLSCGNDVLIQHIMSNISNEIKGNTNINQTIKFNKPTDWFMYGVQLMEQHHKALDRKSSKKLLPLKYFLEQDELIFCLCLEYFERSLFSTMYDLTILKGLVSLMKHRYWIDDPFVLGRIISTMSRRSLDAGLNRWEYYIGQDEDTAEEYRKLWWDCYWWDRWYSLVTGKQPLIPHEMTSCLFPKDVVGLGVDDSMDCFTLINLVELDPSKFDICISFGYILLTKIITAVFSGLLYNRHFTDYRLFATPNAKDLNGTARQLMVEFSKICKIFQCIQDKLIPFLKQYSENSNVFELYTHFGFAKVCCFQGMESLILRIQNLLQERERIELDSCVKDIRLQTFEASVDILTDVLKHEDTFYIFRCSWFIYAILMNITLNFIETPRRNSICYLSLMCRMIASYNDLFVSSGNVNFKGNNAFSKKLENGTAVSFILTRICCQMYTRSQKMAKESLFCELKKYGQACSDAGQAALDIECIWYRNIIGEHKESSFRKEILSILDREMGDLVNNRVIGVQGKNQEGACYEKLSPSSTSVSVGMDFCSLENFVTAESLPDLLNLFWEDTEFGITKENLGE
# Test: PBM E-score (8-mer binding enrichment) (E-score (-0.5 to 0.5)); higher = stronger / more preferred TF binding
# Settings: protein concentration: 100 nM; construct: GST-full length
# Procedure, shortened: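 Detection of bound protein used fluorescent anti-GST, with scans normalised by masliner. The proteins were GST-tagged yeast transcription factors applied at about 100-200 nM to universal all-10-mer Agilent arrays made double-stranded by primer extension. Each ungapped eight-base word, pooled with its reverse complement, was scored with an E-score from the Universal PBM Analysis Suite.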
row,Sequence,PBM E-score
1,CCCACACC,-0.11
2,GGTGTTCA,0.0476
3,AGCAGCAT,-0.206
4,CGAGCTGA,0.114
5,AGGTGACC,-0.147
6,CTGACGGA,0.0435
7,ACACCAAG,-0.0733
8,AATCGAGC,-0.0342
9,CCGCGTAC,0.0694
10,AACTTCTG,0.0903
11,ACCGACGC,0.0188
12,CCAAGGGA,-0.237
13,CACGGCGA,0.0466
14,CCTTCACA,-0.0444
15,ACAGGACA,0.122
16,CGCACTGA,-0.0244
17,ACCCGCCG,0.302
18,GCTAAGGA,-0.154
19,AGTATCGA,0.156
20,ACACCCAA,0.00915
21,GGACACTA,0.0451
22,AGGCATTG,-0.157
23,CGACAGCG,-0.0214
24,TACGAATA,0.118
25,GTACCTAC,-0.212

row,Sequence,PBM E-score
1,ACCTGTTA,-0.229
2,CTCACCGA,0.168
3,ACTTTTGC,0.0377
4,CTAGCGTA,-0.113
5,AGACTAGC,-0.293
6,AAGTTGCT,-0.0222
7,CTACACAA,0.149
8,GGCACCCA,-0.108
9,ATAGCCGG,0.388
10,CCTCCATA,-0.0805
11,CGCTCCCA,-0.144
12,CCTAACTA,0.238
13,CGAGTTAG,0.0651
14,GACAGGGA,-0.135
15,AAAGCGTT,-0.0919
16,CCCGTAGG,-0.109
17,GAAAGCAC,-0.0607
18,ATGAATCG,-0.0062
19,GCAGTGGA,0.0183
20,ACACTTAG,-0.0176
21,AGCGGGAC,-0.163
22,GATTACGA,0.142
23,GACTGCCC,-0.309
24,GATGGAGC,-0.101
25,AAGGCTAA,-0.0364

row,Sequence,PBM E-score
1,CCCAGATC,-0.202
2,GTTTGTAA,0.107
3,ACATTCTG,-0.144
4,CAAGAGTC,-0.0892
5,GCATAACC,-0.0619
6,ATACCCGG,0.179
7,ATGGAAAC,0.0248
8,CAGACAAA,0.157
9,CACTGGGG,-0.224
10,GCGTCGTA,0.143
11,CCTGCAGA,-0.112
12,AACCGCCC,-0.0177
13,CACAATGC,-0.184
14,CACGGCTA,0.22
15,TCGGACCA,0.238
16,CTATGACC,-0.123
17,GCGAGATA,0.0462
18,AACTATCG,-0.0984
19,ACTAGCTA,-0.0382
20,AGGGCTAA,0.0382
21,ACGAGAGC,-0.141
22,AGTTACTA,0.111
23,CGATCAAG,0.00801
24,GACTAGGA,-0.0921
25,GAGCAACA,0.128

row,Sequence,PBM E-score
1,CTGGCCTA,-0.221
2,AGTTCTTC,0.136
3,ACTACACG,-0.0557
4,ATCTTTTG,0.116
5,CGCTTCAA,0.0363
6,GCGCTTTA,0.0325
7,CCTTTCGA,0.0208
8,AAGTTGCC,0.118
9,ATGGCCCG,-0.0155
10,AAGGCTCA,-0.0868
11,ACATCATG,-0.0883
12,TACTCTAA,-0.0158
13,AGGGGTCA,-0.104
14,CATTCGTA,-0.00254
15,GCTGACAC,0.0291
16,AGCGGGGG,-0.406
17,CAGGCGAA,-0.0442
18,AATAGTAA,0.127
19,CGGCGAGC,0.104
20,GCGATAAA,-0.116
21,ACTGGGAG,-0.196
22,CGAAGACA,0.0303
23,AGGCACTG,0.0213
24,CCTGCAAG,-0.215
25,AGAGCCCT,-0.162

row,Sequence,PBM E-score
1,TGACGGAA,0.17
2,AACGCGCT,0.148
3,CCACTGGC,-0.0959
4,GCAAATTA,0.00984
5,ACAACACG,0.0383
6,TTAGGCAA,-0.168
7,CCATACGG,0.0198
8,AATTACAA,0.0221
9,AGATTTAT,0.293
10,GGGGACGA,-0.175
11,AACATAAA,0.0663
12,GGGATGCA,-0.219
13,ACAATCTA,0.0224
14,CATCTGGG,-0.127
15,GCTTAGCC,-0.0268
16,CGCACACC,-0.0404
17,ACGGCTTA,0.193
18,AGACACGA,0.0162
19,ATCTACCG,0.205
20,AACTAGAG,-0.0689
21,TGACTGAA,-0.14
22,ACTAGAGG,-0.258
23,GGGAGCGA,-0.284
24,GATCTAAA,0.141
25,ATCACTCA,0.087

# A second format for part of the listing above.
row | Sequence | PBM E-score
8 | AATTACAA | 0.0221
9 | AGATTTAT | 0.293
10 | GGGGACGA | -0.175
11 | AACATAAA | 0.0663

# Further results follow:

row,Sequence,PBM E-score
1,CCGAGTGA,0.209
2,GATACTCA,0.0312
3,GACTCGCC,-0.225
4,AGCGCCGC,0.0842
5,CACCCGAA,0.209
6,AATGCCGA,0.378
7,GTCGTCGA,-0.251
8,GGCGAAAA,0.237
9,AGCAGAGA,-0.0449
10,ACGAAATG,-0.063
11,GCATTTAA,0.178
12,CCATCGCG,0.189
13,GAAGTCCA,-0.0666
14,AGAAGGCA,-0.199
15,CCGAGCAC,0.203
16,GCCCAGGA,-0.0122
17,TAACTATA,-0.0159
18,GCGGCAGC,-0.119
19,GACTAGCA,-0.185
20,AATCGAAT,0.122
21,ACGCTGTA,0.00315
22,CTTTAGAA,0.233
23,ACGTAGGA,-0.0346
24,CTGCCGCA,-0.117
25,CTATAATC,0.0504

row,Sequence,PBM E-score
1,AAACTTCT,0.196
2,GGCAAGCC,-0.137
3,AATTTGTG,0.139
4,AAGGACAA,0.0335
5,CCGGCTAA,0.3
6,CTGGGACA,-0.234
7,AACGCACT,0.0723
8,TAGCGCAA,0.0359
9,GTAGCGCA,-0.147
10,GCGTATTA,-0.0377
11,ACGGTCTC,-0.0951
12,AGTACGCC,-0.121
13,ATTAGTCG,0.0138
14,GGGTAGTA,-0.154
15,CACATCAG,-0.19
16,CGGCTTAG,0.213
17,ACTCCCTA,-0.154
18,CCTAACAC,0.152
19,CACTAGTA,-0.0824
20,GACTTACA,-0.0474
21,GATGCCTA,-0.109
22,GCGGTGCC,-0.0485
